Source: paper PMC9023467

Amino acid sequences for entries named in this document (tags omitted). Residues count along the entry.
UniProt P37231, residues 29-505: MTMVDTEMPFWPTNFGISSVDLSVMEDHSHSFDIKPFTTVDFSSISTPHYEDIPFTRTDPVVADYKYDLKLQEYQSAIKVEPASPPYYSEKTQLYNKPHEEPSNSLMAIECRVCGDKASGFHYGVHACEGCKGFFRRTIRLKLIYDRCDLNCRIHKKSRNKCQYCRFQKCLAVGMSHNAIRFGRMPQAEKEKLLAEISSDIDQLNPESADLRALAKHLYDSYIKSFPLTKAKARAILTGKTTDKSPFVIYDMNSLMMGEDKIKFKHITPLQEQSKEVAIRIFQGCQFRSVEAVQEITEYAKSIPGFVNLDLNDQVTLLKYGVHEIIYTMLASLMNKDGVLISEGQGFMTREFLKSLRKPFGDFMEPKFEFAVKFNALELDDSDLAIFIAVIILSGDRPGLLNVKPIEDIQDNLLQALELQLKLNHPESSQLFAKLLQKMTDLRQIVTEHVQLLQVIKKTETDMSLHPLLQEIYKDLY

Molecular target: T1, SFB-USP22 (UniProt Q9UPT9)
T1 sequence: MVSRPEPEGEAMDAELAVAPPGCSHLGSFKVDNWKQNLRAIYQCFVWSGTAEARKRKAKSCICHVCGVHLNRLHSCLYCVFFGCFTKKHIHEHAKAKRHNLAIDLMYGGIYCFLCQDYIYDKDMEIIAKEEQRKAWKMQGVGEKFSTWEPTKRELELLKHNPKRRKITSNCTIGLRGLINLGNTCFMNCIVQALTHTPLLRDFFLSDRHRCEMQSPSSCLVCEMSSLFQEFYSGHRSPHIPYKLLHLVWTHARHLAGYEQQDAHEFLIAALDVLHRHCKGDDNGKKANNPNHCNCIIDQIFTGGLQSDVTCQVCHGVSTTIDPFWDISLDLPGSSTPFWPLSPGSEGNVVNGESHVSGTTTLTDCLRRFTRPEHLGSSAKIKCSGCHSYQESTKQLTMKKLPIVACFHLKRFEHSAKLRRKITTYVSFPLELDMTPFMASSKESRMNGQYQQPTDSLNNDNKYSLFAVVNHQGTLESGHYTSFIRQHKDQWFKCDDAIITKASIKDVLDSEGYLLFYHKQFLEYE
Assay: affinity purification with mass spectrometry; tandem affinity purification of SFB-USP22 from HEK293T lysate (NETN buffer): streptavidin-conjugated beads, elution with biotin, then S protein beads; bands from SDS-PAGE analysed by mass spectrometry; control vector in parallel

Substance: peroxisome proliferator-activated receptor gamma (PPARγ), endogenous (from UniProt P37231-2 1-477)
- binding: binds

No constants are given. Whether binding was seen depends on the method and setting. Binding seen in cells or lysates may run through a third protein. A yes stands for co-enrichment or nearness to the bait. Other partners may have been found.
